This test has as its target SmD3 (human) (UniProt P62318). Briefly: crystal structure; U1 snRNP reconstituted from U1 snRNA and nine recombinant proteins; P1 crystals with four particles in the ASU, hanging drop, 38%-40% 2-methyl-2,4-pentanediol, 4°C; experimental map at 6.5 Å, extended to 5.5 Å by multi-NCS, multi-crystal averaging; chains placed with Se, Zn and Hg anomalous peaks; both purified.

The chains behind the UniProt entries cited, without tags or fusion partners. Residues count along the entry.
UniProt P09234, residues 1-77: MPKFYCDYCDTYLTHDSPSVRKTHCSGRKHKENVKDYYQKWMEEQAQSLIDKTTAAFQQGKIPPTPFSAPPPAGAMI

No constants are given. Whether binding was seen depends on the method and setting. Some entries that bind do so weakly or less than the wild type.

For the substance U1-C (from UniProt P09234 1-77), the binding entry is given as “binds”.

The values are drawn from PMC2712673.
